According to patent publication EP3689907A1:
Residue numbers refer to the chain shown, from its start. Results are given in words; binding and its absence hold for the method and conditions named. Binding calls can cover weak binding; strength is not graded here.

B1: PRO571 (scFv)
scFv: DIQMTQSPSSLSASVGDRVTITCQASESIYRYLSWYQQKPGKAPKLLIYLASTLTSGVPSRFSGSGSGTDFTLTISSLQPEDFATYYCQSNFGTASTTYYNTFGGGTKLTVLGGGGGSGGGGSGGGGSGGGGSEVQLVESGGGLVQPGGSLRLSCAASGFSFSGFYYMCWVRQAPGKGLEWIGCIDTGDGTTYYASWAKGRFTISRDNSKNTVYLQMNSLRAEDTAVYYCARDAAYGGYAYPAHGMDLWGQGTLVTVSS
B2: PRO592 (scFv)
scFv: B1 scFv with R152T, Q251P

Target: human IL-17A (human)
Test: competition ELISA: coated scFv, biotinylated IL-17A

Binder | binding
B1 | binds
B2 | binds
